At least one structure is not confirmed: it was looked up by name or label, or the drawing left a doubt.
System: HPK1
Experiment: HPK1 immune complex in vitro kinase (IVK) assay, endogenous HPK1 from treated Jurkat cells
Assay type: cell-based, human
Details: 10 min at 37° C., CTX 1 μg/ml, DB 100 μM, 8BM 100 μM, forskolin 50 μM

SMILES: C=C[C@@]1(C)CC(=O)[C@]2(O)[C@@]3(C)[C@@H](O)CCC(C)(C)[C@@H]3[C@H](O)[C@H](OC(C)=O)[C@@]2(C)O1 [forskolin]
- HPK1 kinase activity (IVK) after PKA activator: robustly induced HPK1 kinase activity

From US20070087988A1, “Hematopoietic progenitor kinase 1 for modulation of an immune response” (New York University, priority 2005, published 2007)
